Source: the supplement of paper PMC4604168 (melanoma cell lines)
The other results are listed elsewhere or left out. Repeats are few or missing, and single values can be far off.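 The apoptosis fraction was the count of cleaved-PARP antibody-stained nuclei relative to all DNA-stained nuclei, imaged in 1,536-well plates. Screening doses were set so most cells survived, and baseline and induced cleaved-PARP levels vary greatly across cell lines.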

Tests used:
Experiment in all cases: cleaved PARP positive nuclei fraction relative to DMSO control; melanoma cells; higher = more apoptosis
Conditions in all cases: library dose: low library concentration; 72 h
501Mel = system: 501Mel
A101D = system: A101D
A2058 = system: A2058
A375 = system: A375
C32 = system: C32
CBRC013 = system: CBRC013 (line from a melanoma biopsy)
CBRC014 = system: CBRC014 (line from a melanoma biopsy)
CBRC016 = system: CBRC016 (line from a melanoma biopsy)
CBRC017 = system: CBRC017 (line from a melanoma biopsy)
CBRC034 = system: CBRC034 (line from a melanoma biopsy)
COLO792 = system: COLO792
COLO800 = system: COLO800
COLO829 = system: COLO829
G361 = system: G361
IPC-298 = system: IPC-298
IST-MEL1 = system: IST-MEL1
LB2518-MEL = system: LB2518-MEL
LOXIMVI = system: LOXIMVI

| Compound | cleaved PARP positive nuclei fraction (501Mel) [%] | cleaved PARP positive nuclei fraction (A101D) [%] | cleaved PARP positive nuclei fraction (A2058) [%] | cleaved PARP positive nuclei fraction (A375) [%] | cleaved PARP positive nuclei fraction (C32) [%] | cleaved PARP positive nuclei fraction (CBRC013) [%] | cleaved PARP positive nuclei fraction (CBRC014) [%] | cleaved PARP positive nuclei fraction (CBRC016) [%] | cleaved PARP positive nuclei fraction (CBRC017) [%] | cleaved PARP positive nuclei fraction (CBRC034) [%] | cleaved PARP positive nuclei fraction (COLO792) [%] | cleaved PARP positive nuclei fraction (COLO800) [%] | cleaved PARP positive nuclei fraction (COLO829) [%] | cleaved PARP positive nuclei fraction (G361) [%] | cleaved PARP positive nuclei fraction (IPC-298) [%] | cleaved PARP positive nuclei fraction (IST-MEL1) [%] | cleaved PARP positive nuclei fraction (LB2518-MEL) [%] | cleaved PARP positive nuclei fraction (LOXIMVI) [%] |
| --- | --- | --- | --- | --- | --- | --- | --- | --- | --- | --- | --- | --- | --- | --- | --- | --- | --- | --- |
| NC(=O)Nc1cc(-c2cccc(F)c2)sc1C(=O)N[C@H]1CCCNC1 + Oc1cc(-c2nc(-c3ccccc3)[nH]c2-c2ccncc2)ccc1Cl [L779450] (first compound 0.02 µM, partner dose 0.2 µM) | 262 | 50.2 | 29.1 | 188 | 63.7 | 115 | 135 | 142 | 96.6 | 95.3 | 186 | 140 | 101 | 71.4 | 253 | 315 | 146 | 36.8 |
| NC(=O)Nc1cc(-c2cccc(F)c2)sc1C(=O)N[C@H]1CCCNC1 + c1cc(-c2cnn3cc(-c4ccc(OCCN5CCCCC5)cc4)cnc23)ccn1 [Dorsomorphin] (first compound 0.02 µM, partner dose 0.4 µM) | 27.8 | 81.8 | 69.3 | 445 | 152 | 136 | 116 | 54.3 | 86.6 | 46.1 | 60.4 | 110 | 115 | 165 | 103 | 242 | 72.1 | 59.3 |
| NC(=O)Nc1cc(-c2cccc(F)c2)sc1C(=O)N[C@H]1CCCNC1 + O=C(Nc1ccccc1)c1cc([N+](=O)[O-])ccc1Cl [GW9662] (first compound 0.02 µM, partner dose 2 µM) | 50.3 | 58.6 | 72.8 | 76.7 | 103 | 351 | 98.6 | 65.9 | 102 | 108 | 60.6 | 136 | 70.5 | 207 | 97.8 | 231 | 228 | 45.1 |
| C#Cc1cccc(Nc2ncnc3cc(OCCOC)c(OCCOC)cc23)c1 [erlotinib] + Cc1cc([N+](=O)[O-])ccc1NS(=O)(=O)c1cc(Cl)ccc1Cl [FH535] (first compound 0.8 µM, partner dose 1 µM) | 49.6 | 151 | 146 | 424 | 60.6 | 121 | 187 | 1050 | 368 | 148 | 147 | 104 | 137 | 106 | 224 | 240 | 80.7 | 60.9 |
| COc1cc(Nc2ncc(F)c(Nc3ccc4c(n3)NC(=O)C(C)(C)O4)n2)cc(OC)c1OC [Tamatinib] + O=c1cc(-c2cccc3c2Sc2ccccc2S3)oc(N2CCOCC2)c1 [KU55933] (first compound 0.4 µM, partner dose 1 µM) | 42.5 | 176 | 198 | 54.7 | 139 | 52.8 | 92.1 | 75.9 | 77.2 | 54.3 | 176 | 212 | 114 | 129 | 74.1 | 142 | 530 | 73.4 |
| Cc1nc(Nc2ncc(C(=O)Nc3c(C)cccc3Cl)s2)cc(N2CCN(CCO)CC2)n1 [dasatanib] + COc1ccc(-c2ccc3c(N4CCOCC4)nc(N4C[C@@H](C)O[C@@H](C)C4)nc3n2)cc1CO [KU0063794] (first compound 0.004 µM, partner dose 0.02 µM) | 81.5 | 95.4 | 149 | 147 | 105 | 81.2 | 124 | 72.4 | 72.8 | 136 | 124 | 198 | 92 | 70.5 | 96.4 | 104 | 92.7 | 57.4 |
| NC(=O)Nc1cc(-c2cccc(F)c2)sc1C(=O)N[C@H]1CCCNC1 + CC(C)CCN1c2nc(Nc3cc(F)c(O)c(F)c3)ncc2N(C)C(=O)C1C [BID1870] (first compound 0.02 µM, partner dose 0.2 µM) | 81.2 | 67.5 | 133 | 223 | 319 | 57.2 | 86.1 | 160 | 91.8 | 47.3 | 162 | 193 | 53.3 | 39 | 34 | 84.4 | 74.2 | 28.5 |
| COc1cc(Nc2ncc(F)c(Nc3ccc4c(n3)NC(=O)C(C)(C)O4)n2)cc(OC)c1OC [Tamatinib] + Cn1cc(/C=C2\C(=O)Nc3cccnc32)c2ccccc21 [GW441756] (first compound 0.4 µM, partner dose 0.4 µM) | 81.1 | 243 | 100 | 144 | 61.3 | 155 | 101 | 21.4 | 80.1 | 126 | 364 | 183 | 160 | 27.4 | 52.4 | 172 | 85.1 | 63.4 |
| C#Cc1cccc(Nc2ncnc3cc(OCCOC)c(OCCOC)cc23)c1 [erlotinib] + COC(=O)c1sccc1S(=O)(=O)Nc1ccc(Nc2ccccc2)cc1OC [GSK0660] (first compound 0.8 µM, partner dose 1 µM) | 61 | 556 | 94.2 | 172 | 133 | 203 | 104 | 33.3 | 86.9 | 43.2 | 85.3 | 64.5 | 155 | 83 | 35.4 | 29 | 75.7 | 74 |
| COc1cc(Nc2ncc(F)c(Nc3ccc4c(n3)NC(=O)C(C)(C)O4)n2)cc(OC)c1OC [Tamatinib] + CCN(CC)CCCCNc1ncc2cc(-c3cc(OC)cc(OC)c3)c(NC(=O)NC(C)(C)C)nc2n1 [PD173074] (first compound 0.4 µM, partner dose 0.1 µM) | 93.6 | 62.5 | 110 | 71 | 69.3 | 62.5 | 90.5 | 17.3 | 102 | 92.5 | 150 | 178 | 107 | 81.6 | 72.4 | 138 | 100 | 43 |
| OCCn1cc(-c2cnc3nnn(Cc4ccc5ncccc5c4)c3n2)cn1 + O=C(O)C(=O)Nc1sc2c(c1C(=O)O)CCNC2 [TCS401] (first compound 1 µM, partner dose 1.66667 µM) | 96.6 | 108 | 113 | 30.1 | 126 | 229 | 89.9 | 104 | 156 | 46.2 | 163 | 84 | 52.2 | 76.1 | 28.4 | 85.1 | 87.9 | 111 |
| Cn1cncc1[C@@](N)(c1ccc(Cl)cc1)c1ccc2c(c1)c(-c1cccc(Cl)c1)cc(=O)n2C [tipifarnib] + COc1cc(N2CCC(N3CCN(C)CC3)CC2)ccc1Nc1ncc(Cl)c(Nc2ccccc2S(=O)(=O)C(C)C)n1 [NVP-TAE684] (first compound 0.01 µM, partner dose 0.08 µM) | 98 | 240 | 368 | 294 | 183 | 328 | 103 | 40 | 90.1 | 668 | 148 | 62.3 | 90.3 | 144 | 87.4 | 119 | 103 | 314 |
| Cc1cc(N2CCOCC2)cc2[nH]c(-c3c(NC[C@@H](O)c4cccc(Cl)c4)cc[nH]c3=O)nc12 + COc1cc(N2CCC(N3CCN(C)CC3)CC2)ccc1Nc1ncc(Cl)c(Nc2ccccc2S(=O)(=O)C(C)C)n1 [NVP-TAE684] (first compound 0.2 µM, partner dose 0.08 µM) | 286 | 117 | 44.5 | 535 | 157 | 154 | 104 | 118 | 82.8 | 63.3 | 121 | 131 | 71.2 | 191 | 117 | 234 | 43.7 | 99.1 |
| OCCn1cc(-c2cnc3nnn(Cc4ccc5ncccc5c4)c3n2)cn1 + COc1ccc(-c2ccc3c(N4CCOCC4)nc(N4C[C@@H](C)O[C@@H](C)C4)nc3n2)cc1CO [KU0063794] (first compound 1 µM, partner dose 0.02 µM) | 92.2 | 114 | 120 | 76.6 | 88.5 | 314 | 90.1 | 82.7 | 152 | 854 | 135 | 110 | 109 | 139 | 66.7 | 43.3 | 89.5 | 12.6 |
| Cc1nc(Nc2ncc(C(=O)Nc3c(C)cccc3Cl)s2)cc(N2CCN(CCO)CC2)n1 [dasatanib] + CC(C)CCN1c2nc(Nc3cc(F)c(O)c(F)c3)ncc2N(C)C(=O)C1C [BID1870] (first compound 0.004 µM, partner dose 0.2 µM) | 84.8 | 101 | 185 | 126 | 170 | 45.4 | 130 | 117 | 93.8 | 300 | 287 | 228 | 60.4 | 343 | 175 | 100 | 268 | 76.8 |
| COCC[n+]1c2c(n(Cc3cnccn3)c1C)C(=O)c1ccccc1C2=O + O=C(Nc1ccccc1)c1cc([N+](=O)[O-])ccc1Cl [GW9662] (first compound 0.0004 µM, partner dose 2 µM) | 51.7 | 51.2 | 129 | 105 | 57 | 566 | 91.2 | 103 | 83.3 | 107 | 68.2 | 141 | 117 | 86.9 | 82.9 | 102 | 85 | 54.9 |
| COc1cc(Nc2ncc(F)c(Nc3ccc4c(n3)NC(=O)C(C)(C)O4)n2)cc(OC)c1OC [Tamatinib] + Oc1nc(-c2ccc(C(F)(F)F)cc2)nc2c1CSCC2 [XAV939] (first compound 0.4 µM, partner dose 2 µM) | 159 | 197 | 164 | 130 | 384 | 150 | 92.8 | 20.9 | 82.8 | 161 | 159 | 211 | 155 | 75 | 76.3 | 97.6 | 87.8 | 70.7 |
| Cc1cc(N2CCOCC2)cc2[nH]c(-c3c(NC[C@@H](O)c4cccc(Cl)c4)cc[nH]c3=O)nc12 + COc1cc2ncnc(Nc3ccc(Oc4ccccc4)cc3)c2cc1OC [SrcI1] (first compound 0.2 µM, partner dose 2 µM) | 95.8 | 306 | 29.5 | 250 | 43.6 | 118 | 92.9 | 105 | 43.3 | 90.6 | 106 | 172 | 44.8 | 86.4 | 46.4 | 83.4 | 232 | 54.7 |

Rewritten as comma-separated lines: entries from further up
Compound,cleaved PARP positive nuclei fraction (501Mel) [%],cleaved PARP positive nuclei fraction (A101D) [%],cleaved PARP positive nuclei fraction (A2058) [%],cleaved PARP positive nuclei fraction (A375) [%],cleaved PARP positive nuclei fraction (C32) [%],cleaved PARP positive nuclei fraction (CBRC013) [%],cleaved PARP positive nuclei fraction (CBRC014) [%],cleaved PARP positive nuclei fraction (CBRC016) [%],cleaved PARP positive nuclei fraction (CBRC017) [%],cleaved PARP positive nuclei fraction (CBRC034) [%],cleaved PARP positive nuclei fraction (COLO792) [%],cleaved PARP positive nuclei fraction (COLO800) [%],cleaved PARP positive nuclei fraction (COLO829) [%],cleaved PARP positive nuclei fraction (G361) [%],cleaved PARP positive nuclei fraction (IPC-298) [%],cleaved PARP positive nuclei fraction (IST-MEL1) [%],cleaved PARP positive nuclei fraction (LB2518-MEL) [%],cleaved PARP positive nuclei fraction (LOXIMVI) [%]
"COCC[n+]1c2c(n(Cc3cnccn3)c1C)C(=O)c1ccccc1C2=O + O=C(Nc1ccccc1)c1cc([N+](=O)[O-])ccc1Cl [GW9662] (first compound 0.0004 µM, partner dose 2 µM)",51.7,51.2,129,105,57,566,91.2,103,83.3,107,68.2,141,117,86.9,82.9,102,85,54.9
"COc1cc(Nc2ncc(F)c(Nc3ccc4c(n3)NC(=O)C(C)(C)O4)n2)cc(OC)c1OC [Tamatinib] + Oc1nc(-c2ccc(C(F)(F)F)cc2)nc2c1CSCC2 [XAV939] (first compound 0.4 µM, partner dose 2 µM)",159,197,164,130,384,150,92.8,20.9,82.8,161,159,211,155,75,76.3,97.6,87.8,70.7
